Measured values: the supplement of paper PMC8728848
Some of the results follow.

Key:
Test in all cases: glycan array binding signal (z-score within array); higher = stronger binding
Conditions in all cases: glycan notation: IUPAC condensed, linker removed
[1] = target: GlcNAc(b1-4)GlcNAc(b1-4)GlcNAc(b1-4)GlcNAc(b1-4)GlcNAc(b1-4)GlcNAc
In short: (§1)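 Negative Z-scores can be read as non-binding. The Z-score is calculated within each array and then averaged across arrays of one protein sequence at different concentrations or buffers and across linkers. Arrays, 3228 in all, were curated from the Consortium for Functional Glycomics database and kept only where the protein sequence was available.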

[2] = target: GlcNAc(b1-4)[GlcNAc(b1-6)]GalNAc
In short: as §1

[3] = target: GlcNAc(b1-6)Gal(b1-4)GlcNAc
In short: as §1

[4] = target: GlcNAc(b1-6)GalNAc
In short: as §1

[5] = target: GlcNAc6S(b1-3)Gal(b1-4)GlcNAc
In short: as §1

[6] = target: Kdn(a2-3)Gal(b1-3)GalNAc
In short: as §1

[7] = target: Kdn(a2-3)Gal(b1-3)GlcNAc
In short: as §1

[8] = target: Kdn(a2-3)Gal(b1-4)Glc
In short: as §1

[9] = target: Kdn(a2-3)Gal(b1-4)GlcNAc
In short: as §1

[10] = target: Kdn(a2-3)Gal(b1-4)[Fuc(a1-3)]GlcNAc
In short: as §1

[11] = target: Kdn(a2-6)Gal(b1-4)GlcNAc
In short: as §1

[12] = target: Man(a1-2)Man(a1-2)Man(a1-3)Man
In short: as §1

[13] = target: Man(a1-2)Man(a1-2)Man(a1-6)[Man(a1-3)]Man
In short: as §1

[14] = target: Man(a1-2)Man(a1-3)Man
In short: as §1

[15] = target: Man(a1-2)Man(a1-3)[Man(a1-2)Man(a1-6)]Man
In short: as §1

[16] = target: Man(a1-2)Man(a1-3)[Man(a1-2)Man(a1-6)]Man(a1-6)[Man(a1-2)Man(a1-2)Man(a1-3)]Man
In short: as §1

[17] = target: Man(a1-2)Man(a1-3)[Man(a1-2)Man(a1-6)]Man(a1-6)[Man(a1-2)Man(a1-2)Man(a1-3)]Man(b1-4)GlcNAc(b1-4)GlcNAc
In short: as §1

[18] = target: Man(a1-2)Man(a1-3)[Man(a1-6)]Man(a1-6)[Man(a1-2)Man(a1-3)]Man(b1-4)GlcNAc(b1-4)GlcNAc
In short: as §1

[19] = target: Man(a1-2)Man(a1-6)[Man(a1-3)]Man(a1-6)[Man(a1-2)Man(a1-2)Man(a1-3)]Man
In short: as §1

[20] = target: Man(a1-2)Man(a1-6)[Man(a1-3)]Man(a1-6)[Man(a1-2)Man(a1-2)Man(a1-3)]Man(b1-4)GlcNAc(b1-4)GlcNAc
In short: as §1

[21] = target: Man(a1-3)[Man(a1-6)]Man
In short: as §1

[22] = target: Man(a1-3)[Man(a1-6)]Man(a1-6)[Man(a1-2)Man(a1-3)]Man(b1-4)GlcNAc(b1-4)GlcNAc
In short: as §1

[23] = target: Man(a1-3)[Man(a1-6)]Man(a1-6)[Man(a1-3)]Man
In short: as §1

[24] = target: Man(a1-3)[Man(a1-6)]Man(a1-6)[Man(a1-3)]Man(b1-4)GlcNAc(b1-4)GlcNAc
In short: as §1

[25] = target: Man(a1-3)[Man(a1-6)]Man(b1-4)GlcNAc(b1-4)GlcNAc
In short: as §1

[26] = target: Man(a1-3)[Man(a1-6)]Man(b1-4)GlcNAc(b1-4)[Fuc(a1-6)]GlcNAc
In short: as §1

[27] = target: Man(a1-6)Man
In short: as §1

[28] = target: Man(b1-4)GlcNAc
In short: as §1

[29] = target: MurNAc(b1-4)GlcNAc
In short: as §1

[30] = target: Neu5Ac(a2-3)Gal
In short: as §1

[31] = target: Neu5Ac(a2-3)Gal(b1-3)GalNAc
In short: as §1

[32] = target: Neu5Ac(a2-3)Gal(b1-3)GalNAc(b1-3)Gal(a1-4)Gal(b1-4)Glc
In short: as §1

[33] = target: Neu5Ac(a2-3)Gal(b1-3)GalNAc(b1-4)Gal(b1-4)Glc
In short: as §1

[34] = target: Neu5Ac(a2-3)Gal(b1-3)GalNAc(b1-4)[Neu5Ac(a2-3)]Gal(b1-4)Glc
In short: as §1

[35] = target: Neu5Ac(a2-3)Gal(b1-3)GalNAc(b1-4)[Neu5Ac(a2-8)Neu5Ac(a2-3)]Gal(b1-4)Glc
In short: as §1

[36] = target: Neu5Ac(a2-3)Gal(b1-3)GalNAc6S
In short: as §1

[37] = target: Neu5Ac(a2-3)Gal(b1-3)GlcNAc
In short: as §1

[38] = target: Neu5Ac(a2-3)Gal(b1-3)GlcNAc(b1-2)Man
In short: as §1

[39] = target: Neu5Ac(a2-3)Gal(b1-3)GlcNAc(b1-2)Man(a1-3)[GlcNAc(b1-4)][Neu5Ac(a2-3)Gal(b1-3)GlcNAc(b1-2)Man(a1-6)]Man(b1-4)GlcNAc(b1-4)GlcNAc
In short: as §1

[40] = target: Neu5Ac(a2-3)Gal(b1-3)GlcNAc(b1-2)Man(a1-3)[Neu5Ac(a2-3)Gal(b1-3)GlcNAc(b1-2)Man(a1-6)]Man(b1-4)GlcNAc(b1-4)GlcNAc
In short: as §1

[41] = target: Neu5Ac(a2-3)Gal(b1-3)GlcNAc(b1-2)[Neu5Ac(a2-3)Gal(b1-3)GlcNAc(b1-4)]Man(a1-6)[Neu5Ac(a2-3)Gal(b1-3)GlcNAc(b1-2)Man(a1-3)]Man(b1-4)GlcNAc(b1-4)GlcNAc
In short: as §1

[42] = target: Neu5Ac(a2-3)Gal(b1-3)GlcNAc(b1-3)Gal(b1-3)GlcNAc
In short: as §1

[43] = target: Neu5Ac(a2-3)Gal(b1-3)GlcNAc(b1-3)Gal(b1-4)GlcNAc
In short: as §1

[44] = target: Neu5Ac(a2-3)Gal(b1-3)GlcNAc(b1-3)GalNAc
In short: as §1

[45] = target: Neu5Ac(a2-3)Gal(b1-3)GlcNAc(b1-6)GalNAc
In short: as §1

B1: Clec39 (Caenorhabditis elegans) (protein)
chain: MTSFYDNSSSSSKPVPLKTSRAQKIQILIFDNWKLILYGAISTLILVLAIMFSTLFFALPAANCDENSEPTKYYTTNAEITTTITTTNQKTTSTASSHLTTISSSATQIYSESSSSSTSQSTFTQSPPEISTTTIAPSDFSCQHGFTLVNNKCWKLVTSNQARPDADKICNGYGGATLFSIKSEQDNRAMIHFVKGQDIDFLWSGLLCSAGEPISCIWDIENGSTANYSNFADGFPNIVYGNCVYFITSGDEAGQWGNEQCGQVMNFVCELPATFQGKDGCKNNYEKSCYLRFDLNLTVPQAQNFCLEKCANLVSIHSANEVRFIMTIYDFIGEILIGALAPAQDFIYWLDGTPANYNNLKFFYNSTCVHMTVAPGMQNVGKWFTRFCTETGKFLCKRSIKNSCT
[1]
  glycan array binding signal (z-score): -0.864
[2]
  glycan array binding signal (z-score): 0.517
[3]
  glycan array binding signal (z-score): 0.316
[4]
  glycan array binding signal (z-score): -0.555
[5]
  glycan array binding signal (z-score): -1.16
[6]
  glycan array binding signal (z-score): 0.326
[7]
  glycan array binding signal (z-score): -0.241
[8]
  glycan array binding signal (z-score): 0.281
[9]
  glycan array binding signal (z-score): -0.512
[10]
  glycan array binding signal (z-score): 0.741
[11]
  glycan array binding signal (z-score): 0.204
[12]
  glycan array binding signal (z-score): -0.46
[13]
  glycan array binding signal (z-score): -0.763
[14]
  glycan array binding signal (z-score): -0.37
[15]
  glycan array binding signal (z-score): -0.005
[16]
  glycan array binding signal (z-score): 0.088
[17]
  glycan array binding signal (z-score): -0.047
[18]
  glycan array binding signal (z-score): 0.209
[19]
  glycan array binding signal (z-score): -1.2
[20]
  glycan array binding signal (z-score): 0.7
[21]
  glycan array binding signal (z-score): 0.047
[22]
  glycan array binding signal (z-score): -1.01
[23]
  glycan array binding signal (z-score): 1.41
[24]
  glycan array binding signal (z-score): 0.164
[25]
  glycan array binding signal (z-score): -0.035
[26]
  glycan array binding signal (z-score): 0.149
[27]
  glycan array binding signal (z-score): 0.877
[28]
  glycan array binding signal (z-score): 0.705
[29]
  glycan array binding signal (z-score): 0.196
[30]
  glycan array binding signal (z-score): -1.96
[31]
  glycan array binding signal (z-score): -0.668
[32]
  glycan array binding signal (z-score): -0.742
[33]
  glycan array binding signal (z-score): -0.356
[34]
  glycan array binding signal (z-score): 0.388
[35]
  glycan array binding signal (z-score): -1.24
[36]
  glycan array binding signal (z-score): -1.02
[37]
  glycan array binding signal (z-score): -0.787
[38]
  glycan array binding signal (z-score): -0.917
[39]
  glycan array binding signal (z-score): 0.452
[40]
  glycan array binding signal (z-score): 0.023
[41]
  glycan array binding signal (z-score): 0.47
[42]
  glycan array binding signal (z-score): -0.142
[43]
  glycan array binding signal (z-score): -0.381
[44]
  glycan array binding signal (z-score): -0.569
[45]
  glycan array binding signal (z-score): 0.87
